Assay results taken from article PMC5522267, “Targeting PEPT1: a novel strategy to improve the antitumor efficacy of doxorubicin in human hepatocellular carcinoma therapy” (Oncotarget, 2017).
Structures can show the parent of a compound that is named as a salt.

Tested on: HepG2
Assay: cells
Type: cell-based
Details: Homo sapiens; HepG2, MTT
Experimental: Cells in the growth log phase were seeded in 96-well plate (200 ul/well) with density 8×10^3/well for 24 hours, then the drugs were added. The concentration of Doxorubicin-tripeptide conjugate was 0.005 mg/ml, 0.01 mg/ml, 0.02 mg/ml, 0.04 mg/ml, 0.06 mg/ml in turn, while Doxorubicin followed by 0.005 mg/ml, 0.01 mg/ml, 0.02 mg/ml, 0.04 mg/ml, 0.06 mg/ml with a same dosing volume 100 μl. Each concentration group included five equal wells and was provided with a control well of medium alone as a negative control. Add 20 μl of MTT Reagent ( 5 mg/ml, Sigma) to each well, including controls and continue to be incubated at 37°C for 4 hours. Remove the supernatant, drop plus DMSO (200 μl/well) and measure the OD value in each well, including the blanks, at 490 nm by a Multi-Mode Reader (BioTek, Synergy 2, USA). To calculate the inhibitory rate and the half maximal inhibitory concentration (IC50) according to the formula: Inhibitory rate =(1-( the dosing group OD/the control group OD )) × 100%, IC50 = lg^-1 (Xm-i (ΣP-0.5)) (Xm: the logarithm of maximum concentration, I: the logarithm of maximum dose/ adjacent dose, P: the sum of each group inhibitory rate, Pm: the maximum inhibitory rate, Pn: the minimum inhibitory rate ).

COc1cccc2c1C(=O)c1c(O)c3c(c(O)c1C2=O)C[C@@](O)(C(=O)CO)C[C@@H]3O[C@H]1C[C@H](N)[C@H](O)[C@H](C)O1 [Doxorubicin, Doxorubicin hydrochloride]
IC50: 14.7 µg/mL
